Test results as given in patent US20110212890A1 (Takeda Pharmaceutical Company Limited, priority 2008, published 2011).

Test: general procedure: Fmoc solid-phase peptide synthesis; Rink amide MBHA resin; DCC/HOBt; DIPCDI/HOAt
Conditions: whole synthesis, scale 0.06 mmol, TFA salt

H-Acp-D-Tyr-D-Trp-Asn-Thr-Phe-AzaGly-Leu-Arg(Me)-Trp-NH2
isolated mass: 7.1 mg
